From the supplement of paper PMC11006884
Most of the targets with a hit are listed elsewhere, so they are rarer here than in the full data. Single values of this set are uncertain. The list shows a part of the results, in another mix than the full data.

Sequences of proteins named here, by UniProt entry; tags and fusion partners are left off. A change or cut given only in a name is not applied to a line headed by its entry.
UniProt Q96D46: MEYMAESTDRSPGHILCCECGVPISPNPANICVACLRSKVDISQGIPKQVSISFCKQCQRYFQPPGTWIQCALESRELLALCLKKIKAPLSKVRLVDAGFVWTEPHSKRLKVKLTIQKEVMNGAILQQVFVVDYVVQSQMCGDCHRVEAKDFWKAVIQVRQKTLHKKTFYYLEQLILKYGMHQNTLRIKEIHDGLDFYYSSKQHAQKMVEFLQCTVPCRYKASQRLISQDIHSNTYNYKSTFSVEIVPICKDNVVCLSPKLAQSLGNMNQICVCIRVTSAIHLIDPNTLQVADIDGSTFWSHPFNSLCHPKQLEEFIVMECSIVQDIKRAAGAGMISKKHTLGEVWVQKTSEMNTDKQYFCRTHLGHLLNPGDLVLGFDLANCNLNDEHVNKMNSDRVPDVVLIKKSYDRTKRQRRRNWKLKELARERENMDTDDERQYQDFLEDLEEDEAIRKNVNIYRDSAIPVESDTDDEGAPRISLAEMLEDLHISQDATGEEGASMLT
UniProt Q96GY3: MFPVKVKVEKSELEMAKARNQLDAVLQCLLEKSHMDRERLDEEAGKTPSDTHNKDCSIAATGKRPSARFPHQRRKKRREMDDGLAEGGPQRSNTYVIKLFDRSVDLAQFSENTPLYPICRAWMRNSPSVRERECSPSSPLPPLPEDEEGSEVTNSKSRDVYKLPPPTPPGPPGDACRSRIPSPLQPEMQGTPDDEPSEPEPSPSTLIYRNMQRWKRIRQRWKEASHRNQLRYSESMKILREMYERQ
UniProt Q92667: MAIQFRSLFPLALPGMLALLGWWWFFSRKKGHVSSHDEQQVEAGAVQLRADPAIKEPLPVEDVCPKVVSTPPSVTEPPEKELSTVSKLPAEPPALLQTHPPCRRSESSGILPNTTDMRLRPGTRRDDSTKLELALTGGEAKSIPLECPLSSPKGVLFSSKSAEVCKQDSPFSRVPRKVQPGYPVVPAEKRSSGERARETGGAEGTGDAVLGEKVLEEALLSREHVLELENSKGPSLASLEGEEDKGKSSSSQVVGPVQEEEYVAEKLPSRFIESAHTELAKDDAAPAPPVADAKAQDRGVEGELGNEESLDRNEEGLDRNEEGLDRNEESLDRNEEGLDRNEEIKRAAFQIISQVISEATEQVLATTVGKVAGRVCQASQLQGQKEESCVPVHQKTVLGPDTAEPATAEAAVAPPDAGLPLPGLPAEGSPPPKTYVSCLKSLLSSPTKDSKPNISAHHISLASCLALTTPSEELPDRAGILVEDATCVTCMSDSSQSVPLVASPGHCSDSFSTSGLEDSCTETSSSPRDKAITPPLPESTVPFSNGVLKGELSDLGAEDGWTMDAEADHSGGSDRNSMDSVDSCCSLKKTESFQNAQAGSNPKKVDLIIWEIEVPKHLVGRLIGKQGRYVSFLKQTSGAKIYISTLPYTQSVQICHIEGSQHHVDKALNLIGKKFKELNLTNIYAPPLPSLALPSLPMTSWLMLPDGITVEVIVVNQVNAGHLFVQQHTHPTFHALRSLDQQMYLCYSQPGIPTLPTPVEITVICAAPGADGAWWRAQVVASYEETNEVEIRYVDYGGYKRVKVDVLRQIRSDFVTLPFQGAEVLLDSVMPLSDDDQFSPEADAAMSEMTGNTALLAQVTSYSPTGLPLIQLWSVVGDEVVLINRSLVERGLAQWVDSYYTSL
UniProt Q96C36: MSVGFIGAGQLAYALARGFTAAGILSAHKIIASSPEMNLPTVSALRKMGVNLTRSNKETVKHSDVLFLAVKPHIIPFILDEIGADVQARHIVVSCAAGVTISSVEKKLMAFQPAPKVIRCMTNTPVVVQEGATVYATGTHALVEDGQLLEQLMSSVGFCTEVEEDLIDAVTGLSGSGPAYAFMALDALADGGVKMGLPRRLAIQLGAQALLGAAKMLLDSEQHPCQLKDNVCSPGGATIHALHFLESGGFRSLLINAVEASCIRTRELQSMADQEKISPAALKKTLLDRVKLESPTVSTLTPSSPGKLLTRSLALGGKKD
UniProt Q92945: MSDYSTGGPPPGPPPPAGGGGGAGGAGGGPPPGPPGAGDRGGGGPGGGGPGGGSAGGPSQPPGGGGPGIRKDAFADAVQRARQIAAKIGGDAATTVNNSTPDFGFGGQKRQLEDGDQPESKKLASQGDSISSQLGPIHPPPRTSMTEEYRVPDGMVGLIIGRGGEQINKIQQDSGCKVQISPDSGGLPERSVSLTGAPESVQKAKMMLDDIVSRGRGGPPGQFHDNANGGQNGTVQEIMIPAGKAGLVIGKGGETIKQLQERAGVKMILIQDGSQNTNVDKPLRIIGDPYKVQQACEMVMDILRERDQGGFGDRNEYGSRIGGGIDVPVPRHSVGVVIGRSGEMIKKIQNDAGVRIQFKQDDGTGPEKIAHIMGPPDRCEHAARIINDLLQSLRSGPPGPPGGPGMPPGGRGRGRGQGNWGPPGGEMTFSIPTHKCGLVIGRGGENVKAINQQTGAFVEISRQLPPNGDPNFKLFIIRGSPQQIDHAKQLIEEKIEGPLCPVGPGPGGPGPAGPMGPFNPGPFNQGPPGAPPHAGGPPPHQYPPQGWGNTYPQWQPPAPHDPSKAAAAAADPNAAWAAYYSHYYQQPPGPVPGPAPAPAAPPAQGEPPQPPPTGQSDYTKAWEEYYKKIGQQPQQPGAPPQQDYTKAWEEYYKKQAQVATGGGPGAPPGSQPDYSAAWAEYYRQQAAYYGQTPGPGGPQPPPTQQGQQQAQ
UniProt Q92698: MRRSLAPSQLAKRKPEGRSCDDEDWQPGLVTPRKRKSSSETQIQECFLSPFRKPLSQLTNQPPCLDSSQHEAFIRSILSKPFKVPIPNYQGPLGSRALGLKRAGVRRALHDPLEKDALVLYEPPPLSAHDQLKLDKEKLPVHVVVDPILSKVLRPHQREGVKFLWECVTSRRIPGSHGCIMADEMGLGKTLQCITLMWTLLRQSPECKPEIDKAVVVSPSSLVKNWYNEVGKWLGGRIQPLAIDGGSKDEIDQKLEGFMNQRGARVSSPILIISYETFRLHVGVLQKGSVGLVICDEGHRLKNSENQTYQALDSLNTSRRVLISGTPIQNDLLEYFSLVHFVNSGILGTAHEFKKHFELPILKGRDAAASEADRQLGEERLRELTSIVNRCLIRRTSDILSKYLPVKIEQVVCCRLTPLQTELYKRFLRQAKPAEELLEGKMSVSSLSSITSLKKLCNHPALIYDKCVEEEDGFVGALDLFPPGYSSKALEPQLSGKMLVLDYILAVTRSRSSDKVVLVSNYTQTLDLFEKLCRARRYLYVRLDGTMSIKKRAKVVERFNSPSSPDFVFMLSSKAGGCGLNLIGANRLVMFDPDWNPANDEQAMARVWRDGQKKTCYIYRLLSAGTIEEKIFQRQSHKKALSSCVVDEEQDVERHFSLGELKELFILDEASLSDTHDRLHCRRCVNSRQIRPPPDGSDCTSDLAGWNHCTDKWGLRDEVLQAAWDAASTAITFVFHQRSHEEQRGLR
UniProt Q96HE7: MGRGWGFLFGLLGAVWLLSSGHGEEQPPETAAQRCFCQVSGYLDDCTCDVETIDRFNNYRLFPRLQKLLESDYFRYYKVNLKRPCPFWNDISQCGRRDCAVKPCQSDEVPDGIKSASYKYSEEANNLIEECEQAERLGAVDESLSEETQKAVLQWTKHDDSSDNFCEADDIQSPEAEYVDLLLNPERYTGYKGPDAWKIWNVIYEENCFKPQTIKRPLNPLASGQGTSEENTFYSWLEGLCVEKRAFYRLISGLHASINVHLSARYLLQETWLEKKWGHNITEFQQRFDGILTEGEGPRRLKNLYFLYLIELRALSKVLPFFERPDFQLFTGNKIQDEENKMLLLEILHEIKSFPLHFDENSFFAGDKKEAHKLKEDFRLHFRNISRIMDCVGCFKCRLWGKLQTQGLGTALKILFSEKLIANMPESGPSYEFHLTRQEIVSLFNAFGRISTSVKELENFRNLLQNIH
UniProt Q96FK6: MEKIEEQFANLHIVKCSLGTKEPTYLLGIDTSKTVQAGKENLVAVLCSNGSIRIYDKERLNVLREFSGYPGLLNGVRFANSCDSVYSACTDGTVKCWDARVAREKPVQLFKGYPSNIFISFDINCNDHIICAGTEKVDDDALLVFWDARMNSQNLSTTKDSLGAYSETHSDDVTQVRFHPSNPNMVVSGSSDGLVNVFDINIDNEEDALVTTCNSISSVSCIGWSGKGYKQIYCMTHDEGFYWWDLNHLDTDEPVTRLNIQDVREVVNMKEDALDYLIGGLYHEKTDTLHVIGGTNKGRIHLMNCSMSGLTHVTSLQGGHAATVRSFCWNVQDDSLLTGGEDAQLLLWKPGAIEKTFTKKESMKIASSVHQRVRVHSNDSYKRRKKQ
UniProt Q969V6: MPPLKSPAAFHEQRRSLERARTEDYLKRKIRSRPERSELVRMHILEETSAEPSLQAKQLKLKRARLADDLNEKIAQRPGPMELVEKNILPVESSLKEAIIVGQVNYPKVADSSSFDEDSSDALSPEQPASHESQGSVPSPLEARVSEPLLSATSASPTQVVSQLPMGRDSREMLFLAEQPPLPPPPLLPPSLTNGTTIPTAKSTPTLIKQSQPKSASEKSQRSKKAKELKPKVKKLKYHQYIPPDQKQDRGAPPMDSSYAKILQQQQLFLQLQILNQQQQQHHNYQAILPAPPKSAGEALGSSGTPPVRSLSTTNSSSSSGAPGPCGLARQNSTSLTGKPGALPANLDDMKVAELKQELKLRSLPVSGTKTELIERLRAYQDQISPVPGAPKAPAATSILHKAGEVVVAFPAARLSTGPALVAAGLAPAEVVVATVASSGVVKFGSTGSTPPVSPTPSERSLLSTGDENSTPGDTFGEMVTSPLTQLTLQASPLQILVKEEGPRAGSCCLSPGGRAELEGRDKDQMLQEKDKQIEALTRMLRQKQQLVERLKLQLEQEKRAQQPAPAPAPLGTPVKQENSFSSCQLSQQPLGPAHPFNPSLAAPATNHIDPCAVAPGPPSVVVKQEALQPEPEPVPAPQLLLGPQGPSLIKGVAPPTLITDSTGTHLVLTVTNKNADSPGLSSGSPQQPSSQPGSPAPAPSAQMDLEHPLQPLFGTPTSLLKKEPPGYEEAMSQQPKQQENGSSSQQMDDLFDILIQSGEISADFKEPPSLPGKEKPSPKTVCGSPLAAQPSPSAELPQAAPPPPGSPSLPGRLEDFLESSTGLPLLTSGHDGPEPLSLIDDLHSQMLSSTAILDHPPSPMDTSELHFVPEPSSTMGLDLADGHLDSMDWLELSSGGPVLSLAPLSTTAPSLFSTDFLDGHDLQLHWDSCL
UniProt Q96HC4: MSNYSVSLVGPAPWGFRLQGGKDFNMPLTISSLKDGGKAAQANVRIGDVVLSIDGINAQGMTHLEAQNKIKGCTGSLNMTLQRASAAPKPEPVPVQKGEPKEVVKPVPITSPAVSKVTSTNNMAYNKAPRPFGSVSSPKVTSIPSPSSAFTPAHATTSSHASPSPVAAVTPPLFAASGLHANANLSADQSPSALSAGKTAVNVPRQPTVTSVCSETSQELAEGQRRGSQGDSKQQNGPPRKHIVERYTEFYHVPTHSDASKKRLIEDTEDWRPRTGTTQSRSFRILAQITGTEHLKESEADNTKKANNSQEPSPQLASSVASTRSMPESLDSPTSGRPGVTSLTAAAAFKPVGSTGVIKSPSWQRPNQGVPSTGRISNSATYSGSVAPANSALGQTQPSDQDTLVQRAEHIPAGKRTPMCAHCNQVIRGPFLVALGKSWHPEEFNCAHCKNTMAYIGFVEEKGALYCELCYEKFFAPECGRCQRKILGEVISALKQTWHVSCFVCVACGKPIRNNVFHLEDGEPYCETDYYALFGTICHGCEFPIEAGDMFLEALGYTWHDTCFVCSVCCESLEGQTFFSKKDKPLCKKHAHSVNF
UniProt Q969Z0: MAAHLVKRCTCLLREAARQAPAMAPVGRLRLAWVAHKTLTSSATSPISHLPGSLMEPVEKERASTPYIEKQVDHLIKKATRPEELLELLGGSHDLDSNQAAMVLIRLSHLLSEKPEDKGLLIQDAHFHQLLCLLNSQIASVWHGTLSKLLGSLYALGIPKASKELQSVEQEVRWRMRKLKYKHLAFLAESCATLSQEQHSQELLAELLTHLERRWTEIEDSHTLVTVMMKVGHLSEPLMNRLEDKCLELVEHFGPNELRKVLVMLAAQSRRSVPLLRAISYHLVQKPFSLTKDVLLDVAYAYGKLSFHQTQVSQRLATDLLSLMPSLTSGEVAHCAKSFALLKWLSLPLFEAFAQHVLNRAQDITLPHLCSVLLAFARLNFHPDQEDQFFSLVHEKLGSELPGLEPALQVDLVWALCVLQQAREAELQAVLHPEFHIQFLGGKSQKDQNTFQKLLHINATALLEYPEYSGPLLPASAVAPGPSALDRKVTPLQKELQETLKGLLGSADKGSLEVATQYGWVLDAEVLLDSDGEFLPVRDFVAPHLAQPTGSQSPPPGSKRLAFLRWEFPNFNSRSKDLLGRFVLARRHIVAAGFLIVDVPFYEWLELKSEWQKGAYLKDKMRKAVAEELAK

These targets were tested with COC(=O)/C=C/c1ccccc1 [methyl cinnamate] (assay: log2 ratio of iodoacetamide-alkyne labeling of the cysteine site, DMSO over compound (competition); higher = stronger covalent engagement of the cysteine by the compound, active = 1 or more). Details: 500 µM; treatment time 1 h; system: HEK293T cell lysate.
In short: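 Reporter intensities give each cysteine's log2 competition ratio as the mean of control channels over the mean of compound channels. The samples were HEK293T lysate (2 mg/mL) given vehicle or electrophile (500 µM, 1 h, ambient temperature), then iodoacetamide alkyne (1 h), followed by click coupling to sCIP-TMT reagents, pooling, trypsin digestion overnight at 37 °C, streptavidin enrichment, acid elution, Orbitrap Eclipse LC-MS/MS with FAIMS and FragPipe quantification. Duplicate channels and three replicates were run, and cysteines quantified in only one replicate were discarded.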

log2 ratio of iodoacetamide-alkyne labeling, inactive:
NMD3 C214 (UniProt Q96D46) 0.0156
UPF1 C657 (UniProt Q92900) -0.0169
LIN37 C28 (UniProt Q96GY3) -0.0469
CREBBP C1199 (UniProt Q92793) 0.143
UniProt Q92599_C80 -0.111
AKAP1 C64 (UniProt Q92667) 0.235
DVL3 C69 (UniProt Q92997) 0.138
PYCR2 C262 (UniProt Q96C36) 0.148
ACD C406 (UniProt Q96AP0) 0.251
PHF3 C1616 (UniProt Q92576) 0.327
KHSRP C296 (UniProt Q92945) -0.00617
UniProt Q96EH3_C233 -0.216
NRBF2 C155 (UniProt Q96F24) 0.0953
DDX27 C259 (UniProt Q96GQ7) 0.169
PHF3 C1631 (UniProt Q92576) 0.42
AKAP1 C376 (UniProt Q92667) 0.59
RAD54L C20 (UniProt Q92698) 0.074
ANP32B C27 (UniProt Q92688) 0.218
AKT1S1 C61 (UniProt Q96B36) 0.0696
AKAP1 C165 (UniProt Q92667) 0.325
UniProt Q96HE7_C166 0.33
SMARCD1 C492 (UniProt Q96GM5) 0.126
TUBGCP3 C17 (UniProt Q96CW5) 0.515
MRPL53 C21 (UniProt Q96EL3) -0.0143
WDR89 C82 (UniProt Q96FK6) 0.479
UniProt Q969V6_C326 0.347
CREBBP C1200 (UniProt Q92793) 0.143
UniProt Q96GD4_C234 0.26
DPF2 C298 (UniProt Q92785) 0.0738
PDLIM5 C213 (UniProt Q96HC4) 0.373
TBRG4 C335 (UniProt Q969Z0) 0.288
DPF1 C149 (UniProt Q92782) -0.00399
Sirt1 C574 (UniProt Q96EB6) 0.285
DVL3 C92 (UniProt Q92997) 0.202
PDXP C91 (UniProt Q96GD0) -0.0107
AKT1S1 C44 (UniProt Q96B36) 0.21
UniProt Q92616_C1482 0.0848

Quoted at random: 2 entries already listed.
log2 ratio of iodoacetamide-alkyne labeling, inactive:
UniProt Q96HE7_C166 0.33
KHSRP C296 (UniProt Q92945) -0.00617
